Data as given in PubChem BioAssay AID1259254 (NCATS, 2017).

Test: 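Gene knock-downs that lead to re-replication, shown by excess G2 DNA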 (primary screen)
Cell system: human HCT116 colorectal cancer cells
Knock-down reagent: single siRNA against human genes
Duration: 3 days
Measurement: 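Imaged Hoechst DNA stain sorts each cell into a cycle phase by DNA amount; per plate, G2 fraction set to 0% for non-targeting and 100% for GMNN siRNA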
Direction: G2 robust z-score: higher = more G2 cells, more excess DNA replication
Hit rule: 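Active siRNAs have a G2 robust z of 5 or more median absolute deviations over the median, which in these data means about 38% or higher of GMNN control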
This is one part, drawn at random, of about 59,000 reagents tested. In the full data, about 1,550 (2.6%) were called active. 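G2 share is only a proxy for re-replication; each gene was hit by three separate siRNAs, and active genes were retested.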 The numbers tell different reagents against one gene apart. Not all columns of the deposit are shown. Not given: the amount of reagent.

gene,reagent,G2 robust z-score,outcome
ADAMTS13,1,1.24,inactive
ADAMTS13,2,-0.116,inactive
ADAMTS13,3,0.817,inactive
MYL5,1,3.75,inactive
MYL5,2,2.89,inactive
MYL5,3,0.0993,inactive
COLGALT2,1,-0.0862,inactive
COLGALT2,2,0.717,inactive
COLGALT2,3,-0.777,inactive
CSNK1A1,1,-0.323,inactive
CSNK1A1,2,-0.198,inactive
CSNK1A1,3,0.986,inactive
CCNF,1,0.581,inactive
CCNF,2,1.97,inactive
CCNF,3,-0.676,inactive
ZNF236,1,-0.234,inactive
ZNF236,2,-0.528,inactive
ZNF236,3,0.127,inactive

Continued (2 carried over from the part before).
gene,reagent,G2 robust z-score,outcome
ZNF236,2,-0.528,inactive
ZNF236,3,0.127,inactive
OVOS2P,1,-0.813,inactive
OVOS2P,2,-0.0747,inactive
OVOS2P,3,-0.048,inactive
SHMT2,1,1.55,inactive
SHMT2,2,-1.25,inactive
SHMT2,3,-0.428,inactive
CLP1,1,1.39,inactive
CLP1,2,-0.544,inactive
CLP1,3,-0.373,inactive
OLMALINC,1,-0.669,inactive
OLMALINC,2,1.57,inactive
OLMALINC,3,0.317,inactive
